Patent US20240189445A1, “Targeted Therapeutic Lipid Nanoparticles and Methods of Use” (THE TRUSTEES OF THE UNIVERSITY OF PENNSYLVANIA, priority 2021, published 2024)
At least one compound was matched to its structure with a doubt left.

System: TNF-induced brain edema
Assay: Brain edema (radiolabeled albumin leakage) after intrastriatal TNFα
Details: TNF model

Compound: CCCCCCCCc1ccc(CCC(N)(CO)CO)cc1 [fingolimod]
- effect of free (non-encapsulated) drug on brain edema: did not reduce brain edema
